According to US20100092479A1, “Compositions and methods for treatment of viral diseases” (CombinatoRx (Singapore) Pte. Ltd., priority 2008, published 2010):
Structures can show the parent of a compound that is named as a salt.

Test system: Huh7 cells expressing a subgenomic RNA replicon of Con1 (genotype 1b)
Test: HCV replicon assay (luciferase, SteadyLite), Example 1
Assay type: cell-based
Details: Hepatitis C virus, Huh-7; single agent; read-out: IC50 (concentration required to achieve 50% inhibition of viral replication)
Description: The HCV replicon assay enables screening of compounds with antiviral activity against HCV viral RNA replication. Huh7 cells expressing a subgenomic RNA replicon of Con1 (genotype 1b) sequence origin and expressing the reporter enzyme luciferase were obtained from ReBLikon, GmBH. In order to perform the assay, replicon cells were seeded on a 384-well plate at 4,000 cells/well in a total volume of 30 μL well. The plated cells were incubated at 37° C., 5% CO2. Pre-diluted compounds at a 10× concentration were added to each well to achieve the desired final concentration. Plates were centrifuged at 900×g, 1 minute following the addition of compounds. Cells were incubated an additional 48 hours or 72 hours at 37° C., 5% CO2. […] Antiviral activity was quantified by the inhibition of luciferase activity. […]
For screens involving a combination of compounds, a synergy score was calculated by the formula S=log fX log fYΣIdata(Idata−/ILoewe), summed over all non-single-agent concentration pairs, and where log fX,Y are the natural logarithm of the dilution factors used for each single agent. This effectively calculates a volume between the measured and Loewe additive response surfaces, weighted towards high inhibition and corrected for varying dilution factors. […]

SMILES: CCN(CC)CCOc1ccc(/C(=C(\Cl)c2ccccc2)c2ccccc2)cc1 [Clomiphene citrate, Clomiphene]
- IC50: 1010 nM
